These are yes or no findings as the source states them, for the method shown. Some results given as binding are weak or reduced against the parent protein; the word gives no strength.
Legend:
CapH 2x strep (human) [1] = target: CapH 2x strep (human) (UniProt Q15003); assay: cross-linking; purified condensin I and II complexes with 2 mM ATPγS, 3 mM DSBU, 25°C, 1 hour, 20 mM HEPES pH 8, 300 mM KCl, 10 mM MgCl2, 1% glycerol, 1 mM TCEP; LC-MS/MS, MeroX; crosslinks found at least 3 times; both purified
[2] = target: CapH ybbR + 2x strep, labelled with Alexa Fluor 647 (human) (UniProt Q15003); assay: SEC; purified ybbR-tagged complexes (wild type and Q-loop mutants) after Sfp labelling with CoA-Alexa647, Superose 6 10/300; subunits seen by SDS-PAGE; both purified
CapH 2x strep (human) [3] = target: CapH 2x strep (human) (UniProt Q15003); assay: SEC; five subunits co-expressed in High Five cells; complex captured on StrepTrap HP, then HiTrap Heparin, then Superose 6 16/70 or Increase 10/300 in 20 mM HEPES pH 8, 300 mM KCl, 5 mM MgCl2, 1 mM DTT, 10% glycerol; peak checked by SDS-PAGE and MS/MS; both purified

Sequences of proteins named here, by UniProt entry; tags and fusion partners are left off. A change or cut given only in a name is not applied to a line headed by its entry.
UniProt Q15003: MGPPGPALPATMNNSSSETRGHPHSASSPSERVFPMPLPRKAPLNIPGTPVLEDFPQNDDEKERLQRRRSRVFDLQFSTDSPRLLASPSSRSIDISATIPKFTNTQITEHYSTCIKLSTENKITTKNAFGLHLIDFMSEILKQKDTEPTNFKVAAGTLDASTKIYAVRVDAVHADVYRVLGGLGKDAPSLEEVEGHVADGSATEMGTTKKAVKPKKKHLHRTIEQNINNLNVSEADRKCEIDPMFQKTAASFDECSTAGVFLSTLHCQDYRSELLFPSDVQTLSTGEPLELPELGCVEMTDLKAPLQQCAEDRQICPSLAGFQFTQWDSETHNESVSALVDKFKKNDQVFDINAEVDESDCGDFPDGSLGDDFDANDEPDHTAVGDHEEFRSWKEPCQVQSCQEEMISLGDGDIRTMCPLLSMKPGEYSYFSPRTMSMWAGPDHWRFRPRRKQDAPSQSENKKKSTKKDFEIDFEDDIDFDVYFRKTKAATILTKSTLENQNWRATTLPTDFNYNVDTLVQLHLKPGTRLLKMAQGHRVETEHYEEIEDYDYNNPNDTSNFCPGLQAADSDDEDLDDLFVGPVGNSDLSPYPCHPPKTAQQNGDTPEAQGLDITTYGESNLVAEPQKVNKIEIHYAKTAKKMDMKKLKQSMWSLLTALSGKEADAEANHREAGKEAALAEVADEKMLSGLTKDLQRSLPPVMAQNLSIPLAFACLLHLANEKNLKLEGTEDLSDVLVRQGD
UniProt Q9NTJ3: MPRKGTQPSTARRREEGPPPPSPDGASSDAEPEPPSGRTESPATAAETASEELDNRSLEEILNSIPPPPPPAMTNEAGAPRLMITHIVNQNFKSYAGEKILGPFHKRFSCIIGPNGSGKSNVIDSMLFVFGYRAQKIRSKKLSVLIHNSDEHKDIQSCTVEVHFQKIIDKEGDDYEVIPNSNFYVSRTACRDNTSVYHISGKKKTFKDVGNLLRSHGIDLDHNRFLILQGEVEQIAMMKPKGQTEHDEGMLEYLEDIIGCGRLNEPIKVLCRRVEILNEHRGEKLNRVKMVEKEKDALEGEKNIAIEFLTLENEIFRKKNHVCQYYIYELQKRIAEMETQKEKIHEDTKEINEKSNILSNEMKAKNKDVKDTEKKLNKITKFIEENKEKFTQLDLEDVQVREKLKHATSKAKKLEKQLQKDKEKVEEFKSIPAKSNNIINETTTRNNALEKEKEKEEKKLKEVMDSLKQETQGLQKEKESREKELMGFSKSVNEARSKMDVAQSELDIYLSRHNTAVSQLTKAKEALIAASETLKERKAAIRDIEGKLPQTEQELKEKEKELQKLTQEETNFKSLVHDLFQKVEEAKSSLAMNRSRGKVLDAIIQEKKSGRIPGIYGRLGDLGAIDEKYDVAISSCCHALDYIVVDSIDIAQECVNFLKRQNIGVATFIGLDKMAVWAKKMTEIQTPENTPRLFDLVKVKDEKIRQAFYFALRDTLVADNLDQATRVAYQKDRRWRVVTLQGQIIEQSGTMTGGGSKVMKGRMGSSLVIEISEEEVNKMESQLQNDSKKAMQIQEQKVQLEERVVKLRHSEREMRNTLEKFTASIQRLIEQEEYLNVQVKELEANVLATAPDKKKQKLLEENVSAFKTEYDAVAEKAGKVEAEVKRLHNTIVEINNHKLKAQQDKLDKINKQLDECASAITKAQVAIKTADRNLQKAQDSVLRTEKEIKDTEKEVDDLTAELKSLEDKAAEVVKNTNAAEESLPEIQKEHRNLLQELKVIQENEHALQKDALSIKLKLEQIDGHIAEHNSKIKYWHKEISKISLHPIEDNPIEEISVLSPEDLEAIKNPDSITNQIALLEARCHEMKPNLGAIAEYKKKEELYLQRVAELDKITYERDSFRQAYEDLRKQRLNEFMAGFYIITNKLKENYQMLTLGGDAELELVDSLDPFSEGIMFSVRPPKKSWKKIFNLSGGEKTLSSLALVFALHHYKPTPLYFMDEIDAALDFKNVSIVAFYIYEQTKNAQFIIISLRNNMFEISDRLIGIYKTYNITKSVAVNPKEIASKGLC
UniProt Q15021: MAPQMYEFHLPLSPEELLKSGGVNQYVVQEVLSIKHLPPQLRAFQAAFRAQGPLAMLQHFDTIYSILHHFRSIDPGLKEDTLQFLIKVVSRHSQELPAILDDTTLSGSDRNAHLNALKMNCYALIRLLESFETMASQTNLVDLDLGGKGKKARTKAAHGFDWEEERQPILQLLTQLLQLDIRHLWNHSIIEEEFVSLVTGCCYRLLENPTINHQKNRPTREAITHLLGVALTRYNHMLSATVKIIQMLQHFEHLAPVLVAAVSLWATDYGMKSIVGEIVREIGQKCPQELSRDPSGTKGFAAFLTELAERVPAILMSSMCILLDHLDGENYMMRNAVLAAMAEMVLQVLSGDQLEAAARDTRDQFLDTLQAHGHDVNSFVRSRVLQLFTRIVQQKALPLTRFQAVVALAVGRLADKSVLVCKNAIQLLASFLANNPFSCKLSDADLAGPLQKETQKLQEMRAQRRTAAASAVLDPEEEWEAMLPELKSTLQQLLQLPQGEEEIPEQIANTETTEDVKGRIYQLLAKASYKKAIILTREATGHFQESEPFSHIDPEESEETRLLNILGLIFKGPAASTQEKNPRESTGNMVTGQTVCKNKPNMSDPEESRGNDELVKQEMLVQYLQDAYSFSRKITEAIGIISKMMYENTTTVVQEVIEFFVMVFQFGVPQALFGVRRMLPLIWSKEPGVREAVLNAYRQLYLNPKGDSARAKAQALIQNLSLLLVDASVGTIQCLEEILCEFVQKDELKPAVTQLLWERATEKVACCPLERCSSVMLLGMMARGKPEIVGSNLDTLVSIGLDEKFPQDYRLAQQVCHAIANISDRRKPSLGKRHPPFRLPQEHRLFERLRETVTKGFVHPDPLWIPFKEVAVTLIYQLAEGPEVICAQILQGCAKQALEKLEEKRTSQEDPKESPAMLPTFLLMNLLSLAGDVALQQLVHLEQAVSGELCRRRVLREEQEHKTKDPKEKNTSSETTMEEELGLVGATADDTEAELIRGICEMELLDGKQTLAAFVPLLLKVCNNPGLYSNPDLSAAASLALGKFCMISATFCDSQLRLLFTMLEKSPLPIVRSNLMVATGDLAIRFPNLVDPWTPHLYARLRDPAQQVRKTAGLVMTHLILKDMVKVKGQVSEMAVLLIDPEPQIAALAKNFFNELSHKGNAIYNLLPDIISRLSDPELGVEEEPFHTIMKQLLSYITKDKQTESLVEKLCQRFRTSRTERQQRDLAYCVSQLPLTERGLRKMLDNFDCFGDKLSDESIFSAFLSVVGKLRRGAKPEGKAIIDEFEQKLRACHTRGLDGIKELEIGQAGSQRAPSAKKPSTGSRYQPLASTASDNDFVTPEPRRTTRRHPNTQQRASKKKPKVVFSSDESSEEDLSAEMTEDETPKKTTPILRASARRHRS
UniProt O95347: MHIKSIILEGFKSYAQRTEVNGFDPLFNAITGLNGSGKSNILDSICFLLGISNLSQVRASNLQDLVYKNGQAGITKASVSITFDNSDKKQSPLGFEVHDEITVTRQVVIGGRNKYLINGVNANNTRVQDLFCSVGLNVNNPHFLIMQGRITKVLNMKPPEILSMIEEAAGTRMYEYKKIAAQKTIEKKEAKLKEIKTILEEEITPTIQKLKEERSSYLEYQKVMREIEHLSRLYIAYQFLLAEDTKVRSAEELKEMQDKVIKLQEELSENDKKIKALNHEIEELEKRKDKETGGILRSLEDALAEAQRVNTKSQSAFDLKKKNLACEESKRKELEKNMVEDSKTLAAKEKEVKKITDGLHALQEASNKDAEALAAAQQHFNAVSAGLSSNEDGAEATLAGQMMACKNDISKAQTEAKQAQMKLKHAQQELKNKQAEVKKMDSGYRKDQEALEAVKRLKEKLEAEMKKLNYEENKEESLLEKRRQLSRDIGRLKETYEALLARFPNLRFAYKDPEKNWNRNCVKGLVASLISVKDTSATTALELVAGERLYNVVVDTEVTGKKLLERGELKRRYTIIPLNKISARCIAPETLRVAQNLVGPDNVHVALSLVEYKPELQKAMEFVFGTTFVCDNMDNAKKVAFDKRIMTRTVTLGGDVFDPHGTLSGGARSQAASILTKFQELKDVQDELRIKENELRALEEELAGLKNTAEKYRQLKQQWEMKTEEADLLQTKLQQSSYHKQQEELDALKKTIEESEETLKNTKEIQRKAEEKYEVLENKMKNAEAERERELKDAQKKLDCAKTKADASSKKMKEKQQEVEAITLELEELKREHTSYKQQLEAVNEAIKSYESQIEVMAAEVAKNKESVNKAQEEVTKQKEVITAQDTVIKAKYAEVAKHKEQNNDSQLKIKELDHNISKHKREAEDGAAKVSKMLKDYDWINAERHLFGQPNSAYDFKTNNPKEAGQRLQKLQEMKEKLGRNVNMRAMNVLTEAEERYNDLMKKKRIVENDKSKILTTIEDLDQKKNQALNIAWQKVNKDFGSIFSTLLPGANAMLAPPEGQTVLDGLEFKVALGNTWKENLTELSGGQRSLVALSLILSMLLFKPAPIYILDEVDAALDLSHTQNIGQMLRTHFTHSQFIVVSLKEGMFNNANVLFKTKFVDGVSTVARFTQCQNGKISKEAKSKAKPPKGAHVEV

Substance | binding (CapH 2x strep (human) [1]) | binding [2] | binding (CapH 2x strep (human) [3])
6x His SMC4 (from UniProt Q9NTJ3 1-1288) | binds | binds | binds
6x His SMC4 Q229L (from UniProt Q9NTJ3 1-1288) |  | binds | 
CAP-D2 (from UniProt Q15021 1-1401) | binds | binds | binds
SMC2 (from UniProt O95347 1-1197) | binds | binds | binds
SMC2 Q147L (from UniProt O95347 1-1197) |  | binds | 
